Data reported in paper doi:10.1101/2023.11.06.565240.

Target: T1, EIF2A (human (endogenous in HEK293T)) (UniProt Q9BY44)
T1 sequence: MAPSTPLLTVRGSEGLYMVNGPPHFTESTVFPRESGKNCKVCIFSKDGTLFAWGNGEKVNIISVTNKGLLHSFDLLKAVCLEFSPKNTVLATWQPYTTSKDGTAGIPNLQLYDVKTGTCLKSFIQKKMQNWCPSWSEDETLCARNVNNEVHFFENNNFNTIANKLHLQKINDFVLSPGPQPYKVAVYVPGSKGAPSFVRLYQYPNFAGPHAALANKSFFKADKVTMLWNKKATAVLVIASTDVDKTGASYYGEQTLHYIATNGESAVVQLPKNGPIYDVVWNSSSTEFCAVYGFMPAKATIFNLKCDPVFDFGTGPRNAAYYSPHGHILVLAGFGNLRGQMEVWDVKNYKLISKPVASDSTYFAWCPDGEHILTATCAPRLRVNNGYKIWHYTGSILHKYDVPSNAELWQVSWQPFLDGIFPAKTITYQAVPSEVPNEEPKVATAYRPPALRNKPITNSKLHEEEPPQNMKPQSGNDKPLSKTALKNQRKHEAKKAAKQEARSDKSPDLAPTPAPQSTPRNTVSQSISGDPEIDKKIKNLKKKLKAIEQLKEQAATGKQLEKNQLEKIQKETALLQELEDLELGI
Experiment: affinity purification with mass spectrometry

binding: binds
Substance: mitochondrial ribosomal small subunit MRPS9 (human (endogenous in HEK293T))

Results are given in words; binding and its absence hold for the method and conditions named. Binding seen in cells or lysates may run through a third protein. A yes stands for co-enrichment or nearness to the bait. Other partners may have been found.
